At least one structure is not confirmed: it was looked up by name or label, or the drawing left a doubt.
Biological target: T1, Urotensin II receptor (Homo sapiens, UniProt Q9UKP6)
T1 construct: expressed in transfected cells; host or cells: HEK cells (HEK-UTR)
T1 sequence (Q9UKP6 1-389): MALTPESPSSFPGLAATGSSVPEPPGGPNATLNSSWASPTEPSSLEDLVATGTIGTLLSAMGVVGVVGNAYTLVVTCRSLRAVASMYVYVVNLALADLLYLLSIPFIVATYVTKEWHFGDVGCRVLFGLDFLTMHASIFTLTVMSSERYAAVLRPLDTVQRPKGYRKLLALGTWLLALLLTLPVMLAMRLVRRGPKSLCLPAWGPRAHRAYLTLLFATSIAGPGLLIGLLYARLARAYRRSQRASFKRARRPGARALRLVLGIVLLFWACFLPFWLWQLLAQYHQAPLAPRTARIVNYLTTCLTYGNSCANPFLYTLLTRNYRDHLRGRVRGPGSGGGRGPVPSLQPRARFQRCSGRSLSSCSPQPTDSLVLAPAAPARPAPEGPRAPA
Experiment: Calcium mobilization measurement in HEK-UTR cells (Fluo-4-AM fluorescence)
Format: cell-based
Settings: HEK-UTR cells (HEK cells expressing an Urotensin II receptor)
Experimental: FIG. 10 illustrates calcium mobilization in cells by addition of peptides using a fluorescent reagent. 2×10^5 HEK-UTR cells (HEK cells expressing an Urotensin II receptor) were seeded into a 96 well plate. After 12-16 hours, the cells were incubated in 1 μM Fluo-4-AM (Dojindo Laboratories) for 1 hour. After the incubation was completed, the fluorescent reagent was removed, and 90 μL of an assay buffer (Hanks Balanced Salts Solution (HBSS), 10 mM HEPES, 200 μM of CaCl2, 0.1% BSA, and 2.5 mM probenecid) was added. Then, 10 μL of peptides dissolved in an assay buffer was added, and changes in an intensity of fluorescent light were measured by a microplate reader. The peptides were prepared by purifying the translation product by Zip-tip (Millipore) and distilling off the elute under reduced pressure.

With `CC(C)[C@H](NC(=O)[C@@H]1CSSC[C@H](NC(=O)[C@H](CC(=O)O)NC(=O)[C@@H]2CCCN2C(=O)[C@@H](NC(=O)[C@@H](N)CCC(=O)O)[C@@H](C)O)C(=O)N[C@@H](Cc2ccccc2)C(=O)N[C@@H](Cc2c[nH]c3ccccc23)C(=O)N[C@@H](CCCCN)C(=O)N[C@@H](Cc2ccc(O)cc2)C(=O)N1)C(=O)O` [Urotensin II] the “calcium mobilization in cells (change in fluorescence intensity)” value was “a change in the concentration of calcium was observed”.
